# PubChem BioAssay AID720505 | Drosophila RNAi Screening Center | 2013
# Aim: 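Knock-downs that reduce calcium influx once internal stores are emptied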 (primary screen)
# Cell system: Drosophila S2R+ cells
# Reagents: long dsRNA against Drosophila genes
# Conditions: thapsigargin (2 µM) in calcium-free buffer to empty internal stores, then 2 mM calcium added back
# Read-out: 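Fluo-4 signal in 384-well plates read on a FLIPR after thapsigargin (2 µM, calcium-free) store depletion and 2 mM calcium add-back; unnormalised mean endpoint per well; screen run twice, selected wells retested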
# Reading the numbers: calcium signal and retest calcium signal: higher = more calcium entry after store depletion
# Rule for the call: 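Knock-downs counted as hits when calcium entry dropped relative to STIM1 positive and Rho1 negative controls present on each plate; roughly 1500 genes called, with reductions of differing size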
# Meaning of the calls: active = called as lowering calcium entry; inactive = not called
# The screen tested about 20,000 reagents; below is an unselected part of those that have a named target and a result. Over the whole deposit, about 2,100 (10%) are marked active. 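Raw plate signals without normalisation; calls rest on control-based scores that were not deposited; replicate 2 separates called from uncalled poorly.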 The numbers tell different reagents against one gene apart. No sequences are given here. Not stated in the record: the amount of reagent, the time to read-out.
Gene,reagent,"calcium signal, replicate 1","calcium signal, replicate 2","retest calcium signal, replicate 1","retest calcium signal, replicate 2",outcome
CG17470,1,115,80.6,,,inactive
CG3216,1,224,80.4,,,inactive
CG9166,1,84.2,143,,,inactive
Vti1a (Vesicle transport through interaction with t-SNAREs 1a),1,73.3,125,,,active
Ate1 (Arginyltransferase 1),1,99.2,114,,,inactive
CG15368,1,122,124,,,inactive
CG15368,2,186,157,,,inactive
eIF3b (eukaryotic translation initiation factor 3 subunit b),1,114,115,,,active
Ctr9,1,124,149,,,inactive
RpS15 (Ribosomal protein S15),1,90.9,118,,,active
Tsp29Fa (Tetraspanin 29Fa),1,141,146,,,inactive
CG5664,1,83.6,139,,,inactive
subdued,1,111,203,,,inactive
Sas10 (Something about silencing 10),1,155,119,,,inactive
Ripalpha (RPA-interacting protein alpha),1,151,108,,,inactive
CG6330,1,129,109,,,inactive
CG13334,1,127,186,,,inactive
RpS19a (Ribosomal protein S19a),1,66,83.2,,,active
Ir52c (Ionotropic receptor 52c),1,160,94.8,,,inactive
Pgd (Phosphogluconate dehydrogenase),1,160,92.4,,,inactive
CG7631,1,126,152,,,inactive
Fum1 (Fumarase 1),1,125,129,120,111,inactive
CR33318 (pseudo),1,101,136,,,inactive
"DCTN4-p62 (Dynactin 4, p62 subunit)",1,138,88.4,,,inactive
DIP-zeta (Dpr-interacting protein zeta),1,120,107,,,inactive
DIP-zeta (Dpr-interacting protein zeta),2,130,123,86.8,125,inactive
DIP-zeta (Dpr-interacting protein zeta),3,123,110,,,inactive
CG1575,1,110,75.9,,,inactive
CG1636,1,159,87.6,91.1,77.1,inactive
CG6282,1,114,124,,,inactive
CG30380,1,97.3,147,,,inactive
128up (upstream of RpIII128),1,165,148,,,inactive
CG3156,1,110,135,,,inactive
Lk (Leucokinin),1,79.1,152,,,inactive
CG32642,1,,,,,inactive
PIG-Q (Phosphatidylinositol glycan anchor biosynthesis class Q),1,107,104,,,inactive
CG1542,1,81.5,90.9,,,inactive
CG33958,1,157,168,,,inactive
CG33958,2,172,138,,,inactive
Hipk (Homeodomain interacting protein kinase),1,63.7,91.2,,,active
Hipk (Homeodomain interacting protein kinase),2,108,152,,,inactive
per (period),1,101,100,,,active
Cdk1 (Cyclin-dependent kinase 1),1,88.8,122,,,inactive
CG4972,1,173,155,,,inactive
Tdh (L-threonine dehydrogenase),1,80.6,75.8,,,inactive
"Polr2K (RNA polymerase II, I and III subunit K)",1,82.8,104,,,inactive
CG12402,1,111,165,,,inactive
Dsk (Drosulfakinin),1,120,155,,,inactive
CG13022,1,94.7,132,,,inactive
CG12056,1,146,132,,,inactive
CG43339,1,113,116,,,inactive
CG7907,1,75.7,157,,,active
Mal-B1 (Maltase B1),1,210,141,,,inactive
CG13065,1,72.9,126,,,inactive
Gr10b (Gustatory receptor 10b),1,87.8,123,,,inactive
ea (easter),1,110,109,,,inactive
Cog7 (Component of oligomeric golgi complex 7),1,157,129,,,inactive
Irk2 (Inwardly rectifying potassium channel 2),1,183,181,,,inactive
CG7377,1,85.6,87.3,,,inactive
lms (lateral muscles scarcer),1,77.1,123,,,inactive
CG17801,1,123,111,,,inactive
CG13623,1,244,132,,,inactive
Cpr30B (Cuticular protein 30B),1,161,171,,,inactive
Stoml2 (Stomatin like 2),1,101,95.6,,,inactive
CG13928,1,92.4,146,,,inactive
lsn (larsen),1,213,178,,,inactive
Ino80 (INO80 complex subunit),1,237,107,,,inactive
Ino80 (INO80 complex subunit),2,252,150,,,inactive
Ino80 (INO80 complex subunit),3,250,110,,,inactive
skl (sickle),1,86.1,178,,,inactive
Glyp (Glycogen phosphorylase),1,74.4,94.5,,,inactive
CG7848,1,132,112,,,inactive
Sps2 (Selenophosphate synthetase 2),1,142,151,,,inactive
psidin (phagocyte signaling impaired),1,136,82.3,,,inactive
CG17108,1,68.6,82.5,,,active
CG17108,2,119,256,,,inactive
Cul3 (Cullin 3),1,128,117,,,inactive
Cul3 (Cullin 3),2,108,108,,,inactive
CG30010,1,86.7,157,,,inactive
CG42329,1,148,130,,,inactive
CG42329,2,174,113,,,inactive
CG5011,1,116,211,,,inactive
Ir7b (Ionotropic receptor 7b),1,288,79.1,,,inactive
jtb (jetboil),1,174,119,,,inactive
CG6931,1,106,112,,,inactive
CG11373,1,139,179,,,inactive
CG10591,1,63.5,111,,,active
CG6013,1,111,204,,,inactive
HUWE1,1,101,146,,,inactive
DUBAI (Deubiquitinating apoptotic inhibitor),1,187,190,,,inactive
CG43897,1,90.8,93.3,,,inactive
CG43897,2,71.9,81,,,inactive
CG43897,3,89.6,113,,,inactive
CG43897,4,120,166,,,inactive
CG16957,1,105,109,,,inactive
tay (tay bridge),1,139,129,,,inactive
CG16959,1,185,83.8,,,inactive
Dronc (Death regulator Nedd2-like caspase),1,83.9,73.4,,,inactive
gro (groucho),1,88.5,164,,,inactive
Syx8 (Syntaxin 8),1,4074,65.6,219,86,inactive
Syx8 (Syntaxin 8),2,108,176,,,inactive
CG12481,1,114,107,,,inactive
Prdm13 (PR/SET domain 13),1,110,86.2,,,inactive
vap (vacuolar peduncle),1,120,116,,,inactive
CCAP-R (Crustacean cardioactive peptide receptor),1,263,143,,,inactive
CCAP-R (Crustacean cardioactive peptide receptor),2,293,174,,,inactive

An excerpt from above, showing only “calcium signal, replicate 2”.
Vti1a (Vesicle transport through interaction with t-SNAREs 1a) = 125
Ate1 (Arginyltransferase 1) = 114
CG15368 #1 = 124
CG15368 #2 = 157
eIF3b (eukaryotic translation initiation factor 3 subunit b) = 115
Ctr9 = 149
RpS15 (Ribosomal protein S15) = 118
Tsp29Fa (Tetraspanin 29Fa) = 146
CG5664 = 139
subdued = 203
Sas10 (Something about silencing 10) = 119
Ripalpha (RPA-interacting protein alpha) = 108
CG6330 = 109
